Measurements as given in article PMC7948486.
Residue numbers refer to the chain shown, from its start. Names may count otherwise. No constants are given. Whether binding was seen depends on the method and setting. In cells and extracts the contact can be indirect. Some entries that bind do so weakly or less than the wild type. Tags and fused reporters may be left off the sequences shown.

Target: T1, ELK-1 (UniProt P19419)
T1 sequence: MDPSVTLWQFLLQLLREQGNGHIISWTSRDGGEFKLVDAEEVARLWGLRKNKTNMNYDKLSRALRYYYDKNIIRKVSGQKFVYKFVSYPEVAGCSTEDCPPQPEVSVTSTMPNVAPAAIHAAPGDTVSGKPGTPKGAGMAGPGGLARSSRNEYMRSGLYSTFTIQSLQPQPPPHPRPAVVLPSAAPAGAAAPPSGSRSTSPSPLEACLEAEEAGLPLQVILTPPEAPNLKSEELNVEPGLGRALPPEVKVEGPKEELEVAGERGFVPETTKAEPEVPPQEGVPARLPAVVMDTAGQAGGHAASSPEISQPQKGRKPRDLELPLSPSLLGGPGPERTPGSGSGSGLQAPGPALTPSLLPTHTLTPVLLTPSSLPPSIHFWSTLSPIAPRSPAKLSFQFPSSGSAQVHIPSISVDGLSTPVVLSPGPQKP
Assay: co-IP; HEK293T cells co-transfected with ELK-1 (or deletion mutants) and FBXO25 (or S244L); lysed in co-IP buffer (25 mM Tris HCl pH 7.5, 150 mM KCl, 10 mM NaF, 1 mM Na3VO4, 1% NP-40); ELK-1 precipitated with polyclonal αElkC antibody overnight at 4 °C (preimmune control), protein G Sepharose; FBXO25 detected by αV5 immunoblot

B1: FBXO25 (V5/His-tagged) (protein, UniProt Q8TCJ0 1-367)
chain: MPFLGQDWRSPGWSWIKTEDGWKRCESCSQKLERENNRCNISHSIILNSEDGEIFNNEEHEYASKKRKKDHFRNDTNTQSFYREKWIYVHKESTKERHGYCTLGEAFNRLDFSSAIQDIRRFNYVVKLLQLIAKSQLTSLSGVAQKNYFNILDKIVQKVLDDHHNPRLIKDLLQDLSSTLCILIRGVGKSVLVGNINIWICRLETILAWQQQLQDLQMTKQVNNGLTLSDLPLHMLNNILYRFSDGWDIITLGQVTPTLYMLSEDRQLWKKLCQYHFAEKQFCRHLILSEKGHIEWKLMYFALQKHYPAKEQYGDTLHFCRHCSILFWKDYHLALLFKDSGHPCTAADPDSCFTPVSPQHFIDLFKF
binding: binds

B2: FBXO25-S244L (protein, UniProt Q8TCJ0 1-367)
chain: B1 chain with S244L
binding: binds
